Test results taken from PMC5515951.
These are yes or no findings as the source states them, for the method shown. Binding seen in cells or lysates may run through a third protein. Some binding calls cover weakened binding; strength is not graded here.

Assays:
Hsp27 (Drosophila) = molecular target: T1, Hsp27 (Drosophila) (UniProt P02518); test: co-IP; homogenised fly heads (Appl > Hsp26 or Appl > Hsp27); lysis buffer 20 mM Tris-HCl pH 7.5, 100 mM NaCl, 0.5 mM EDTA, 0.5% NP40; precleared with normal IgG; IP with rabbit polyclonal anti-Hsp26 or anti-Hsp27 and protein A/G-agarose at 4 °C overnight; washed 6 times with 500 mM NaCl buffer; blot with anti-p53; IgG as control
T1 sequence: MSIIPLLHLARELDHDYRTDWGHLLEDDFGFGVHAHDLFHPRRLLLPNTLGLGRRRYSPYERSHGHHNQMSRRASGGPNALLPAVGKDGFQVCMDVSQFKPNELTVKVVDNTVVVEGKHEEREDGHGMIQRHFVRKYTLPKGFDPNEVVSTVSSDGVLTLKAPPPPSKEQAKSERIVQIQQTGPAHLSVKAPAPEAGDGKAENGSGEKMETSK

Hsp26 (Drosophila) = molecular target: T2, Hsp26 (Drosophila) (UniProt P02517); test: as above
T2 sequence: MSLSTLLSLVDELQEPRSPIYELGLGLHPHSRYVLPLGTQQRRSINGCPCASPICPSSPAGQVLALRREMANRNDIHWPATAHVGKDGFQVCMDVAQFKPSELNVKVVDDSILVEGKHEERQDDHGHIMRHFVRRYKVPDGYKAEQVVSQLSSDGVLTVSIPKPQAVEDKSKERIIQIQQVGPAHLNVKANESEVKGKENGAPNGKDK

binding (Hsp27 (Drosophila)): binds
binding (Hsp26 (Drosophila)): binds
B1: p53 (protein, UniProt Q9N6D8 1-385)
chain: MYISQPMSWHKESTDSEDDSTEVDIKEDIPKTVEVSGSELTTEPMAFLQGLNSGNLMQFSQQSVLREMMLQDIQIQANTLPKLENHNIGGYCFSMVLDEPPKSLWMYSIPLNKLYIRMNKAFNVDVQFKSKMPIQPLNLRVFLCFSNDVSAPVVRCQNHLSVEPLTANNAKMRESLLRSENPNSVYCGNAQGKGISERFSVVVPLNMSRSVTRSGLTRQTLAFKFVCQNSCIGRKETSLVFCLEKACGDIVGQHVIHVKICTCPKRDRIQDERQLNSKKRKSVPEAAEEDEPSKVRRCIAIKTEDTESNDSRDCDDSAAEWNVSRTPDGDYRLAITCPNKEWLLQSIEGMIKEAAAEVLRNPNQENLRRHANKLLSLKKRAYELP
